Assay results taken from publication PMC10690479.
No constants are given. Whether binding was seen depends on the method and setting. In cells and extracts the contact can be indirect. Some entries that bind do so weakly or less than the wild type.

Sequences of proteins named here, by UniProt entry; tags and fusion partners are left off.
UniProt Q9P2D3: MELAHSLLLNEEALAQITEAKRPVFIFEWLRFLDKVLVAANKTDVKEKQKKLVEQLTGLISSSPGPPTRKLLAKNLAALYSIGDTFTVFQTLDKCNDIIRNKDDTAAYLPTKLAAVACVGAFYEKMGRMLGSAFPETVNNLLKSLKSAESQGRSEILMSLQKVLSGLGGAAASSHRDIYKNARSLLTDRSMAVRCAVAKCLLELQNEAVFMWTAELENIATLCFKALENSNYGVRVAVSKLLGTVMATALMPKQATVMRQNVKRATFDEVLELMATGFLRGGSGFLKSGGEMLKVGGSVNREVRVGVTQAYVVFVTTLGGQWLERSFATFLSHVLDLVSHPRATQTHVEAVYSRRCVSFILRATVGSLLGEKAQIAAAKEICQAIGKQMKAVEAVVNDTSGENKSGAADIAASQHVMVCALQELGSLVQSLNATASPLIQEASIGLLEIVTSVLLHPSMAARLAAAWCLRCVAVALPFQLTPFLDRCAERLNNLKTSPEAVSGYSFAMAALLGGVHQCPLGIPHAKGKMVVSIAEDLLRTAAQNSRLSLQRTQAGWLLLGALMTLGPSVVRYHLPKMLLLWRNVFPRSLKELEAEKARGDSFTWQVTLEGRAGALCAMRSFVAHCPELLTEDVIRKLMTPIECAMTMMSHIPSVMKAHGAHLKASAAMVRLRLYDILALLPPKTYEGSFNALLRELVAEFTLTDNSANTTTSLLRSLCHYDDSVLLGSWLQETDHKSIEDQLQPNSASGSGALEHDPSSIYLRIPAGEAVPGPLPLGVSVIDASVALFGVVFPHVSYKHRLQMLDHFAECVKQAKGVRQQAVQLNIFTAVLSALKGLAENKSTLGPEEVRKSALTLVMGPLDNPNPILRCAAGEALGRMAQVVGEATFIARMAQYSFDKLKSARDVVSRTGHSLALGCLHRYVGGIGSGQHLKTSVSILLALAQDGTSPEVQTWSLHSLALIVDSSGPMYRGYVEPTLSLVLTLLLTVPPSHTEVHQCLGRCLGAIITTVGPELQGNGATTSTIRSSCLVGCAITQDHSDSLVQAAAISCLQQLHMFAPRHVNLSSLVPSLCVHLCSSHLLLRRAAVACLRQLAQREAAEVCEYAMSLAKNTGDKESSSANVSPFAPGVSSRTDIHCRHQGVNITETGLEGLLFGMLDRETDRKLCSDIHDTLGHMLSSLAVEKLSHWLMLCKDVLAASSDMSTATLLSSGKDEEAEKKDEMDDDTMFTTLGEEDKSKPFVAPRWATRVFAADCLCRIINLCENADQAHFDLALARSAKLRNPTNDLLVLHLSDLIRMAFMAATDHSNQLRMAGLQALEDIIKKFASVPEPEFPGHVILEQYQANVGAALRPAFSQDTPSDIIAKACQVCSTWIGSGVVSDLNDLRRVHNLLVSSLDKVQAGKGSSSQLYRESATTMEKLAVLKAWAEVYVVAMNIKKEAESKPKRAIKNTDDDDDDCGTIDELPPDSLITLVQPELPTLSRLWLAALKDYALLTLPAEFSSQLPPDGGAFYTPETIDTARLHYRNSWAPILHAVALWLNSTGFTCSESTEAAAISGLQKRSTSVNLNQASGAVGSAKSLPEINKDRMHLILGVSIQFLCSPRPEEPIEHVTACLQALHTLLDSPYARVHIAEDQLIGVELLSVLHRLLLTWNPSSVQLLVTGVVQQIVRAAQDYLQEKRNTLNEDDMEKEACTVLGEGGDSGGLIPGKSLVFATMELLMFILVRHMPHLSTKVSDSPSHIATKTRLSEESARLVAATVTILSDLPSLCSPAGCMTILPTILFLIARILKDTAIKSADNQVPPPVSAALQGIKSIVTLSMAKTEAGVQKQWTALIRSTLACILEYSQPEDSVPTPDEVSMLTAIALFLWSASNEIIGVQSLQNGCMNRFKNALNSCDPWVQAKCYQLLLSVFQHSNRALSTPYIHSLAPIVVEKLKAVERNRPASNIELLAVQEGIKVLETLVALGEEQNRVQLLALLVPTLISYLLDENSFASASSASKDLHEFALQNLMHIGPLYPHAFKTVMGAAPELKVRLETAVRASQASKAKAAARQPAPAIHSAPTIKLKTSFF
UniProt Q14203: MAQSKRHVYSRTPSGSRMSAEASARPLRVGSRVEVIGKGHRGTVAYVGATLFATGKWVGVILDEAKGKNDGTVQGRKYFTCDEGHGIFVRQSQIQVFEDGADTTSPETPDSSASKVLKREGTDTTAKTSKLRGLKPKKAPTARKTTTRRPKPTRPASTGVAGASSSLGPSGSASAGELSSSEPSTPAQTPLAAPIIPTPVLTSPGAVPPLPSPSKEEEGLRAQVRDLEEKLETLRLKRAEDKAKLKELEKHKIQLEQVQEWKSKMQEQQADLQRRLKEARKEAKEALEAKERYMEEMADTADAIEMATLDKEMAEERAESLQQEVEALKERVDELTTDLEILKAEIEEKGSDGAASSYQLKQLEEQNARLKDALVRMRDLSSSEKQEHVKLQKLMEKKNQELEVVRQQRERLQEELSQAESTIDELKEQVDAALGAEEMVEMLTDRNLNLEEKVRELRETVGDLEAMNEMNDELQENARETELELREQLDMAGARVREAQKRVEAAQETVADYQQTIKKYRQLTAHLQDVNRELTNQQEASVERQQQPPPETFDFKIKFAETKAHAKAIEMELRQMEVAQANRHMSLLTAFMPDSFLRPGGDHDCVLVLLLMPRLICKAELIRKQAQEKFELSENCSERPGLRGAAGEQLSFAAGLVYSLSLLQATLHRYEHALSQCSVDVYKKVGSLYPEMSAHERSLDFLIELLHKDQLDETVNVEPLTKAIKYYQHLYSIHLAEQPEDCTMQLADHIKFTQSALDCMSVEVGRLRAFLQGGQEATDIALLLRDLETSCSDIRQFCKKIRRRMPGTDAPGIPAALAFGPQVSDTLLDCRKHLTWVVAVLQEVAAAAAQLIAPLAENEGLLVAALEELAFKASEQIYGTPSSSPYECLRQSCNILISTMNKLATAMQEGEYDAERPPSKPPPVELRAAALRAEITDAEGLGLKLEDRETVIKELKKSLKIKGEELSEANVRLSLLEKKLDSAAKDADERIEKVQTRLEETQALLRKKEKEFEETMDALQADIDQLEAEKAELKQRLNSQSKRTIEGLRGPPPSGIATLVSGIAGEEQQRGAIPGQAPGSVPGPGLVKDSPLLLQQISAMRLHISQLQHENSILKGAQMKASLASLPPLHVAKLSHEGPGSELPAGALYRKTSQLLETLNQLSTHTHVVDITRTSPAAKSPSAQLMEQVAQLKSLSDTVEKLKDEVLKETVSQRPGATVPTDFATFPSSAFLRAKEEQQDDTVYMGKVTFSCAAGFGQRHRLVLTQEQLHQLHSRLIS

Target: GFP-tagged human HEATR5B, stably expressed in HEK293 Flp-In cells (human) (UniProt Q9P2D3)
Experiment: co-IP; GFP-Trap magnetic beads, lysates of HEK293 Flp-In T-REx cells expressing GFP-HEATR5B or GFP, 4 h at 4°C, washed in Citomix buffer; immunoblots

binding	Molecule
binds	DCTN1 (dynactin subunit), endogenous in HEK293 cells (from UniProt Q14203 1-1278)
binds	DYNC1H1 (dynein heavy chain), endogenous in HEK293 cells (from UniProt Q14204 1-4646)
binds	Aftiphilin, endogenous in HEK293 cells (protein, UniProt Q6ULP2 1-936) MEPDIIRMYSSSPPPLDNGAEDDDDDEFGEFGGFSEVSPSGVGFVDFDTPDYTRPKEEFVPSNHFMPIHEFSENVDSLTSFKSIKNGNDKDITAELSAPVKGQSDVLLSTTSKEIISSEMLATSIDGMERPGNLNKVVEQRQNVGTLESFSPGDFRTNMNVVHQNKQLESCNGEKPPCLEILTNGFAVLETVNPQGTDDLDNVADSKGRKPLSTHSTEYNLDSVPSPAEEFADFATFSKKERIQLEEIECAVLNDREALTIRENNKINRVNELNSVKEVALGRSLDNKGDTDGEDQVCVSEISIVTNRGFSVEKQGLPTLQQDEFLQSGVQSKAWSLVDSADNSEAIRREQCKTEEKLDLLTSKCAHLCMDSVKTSDDEVGSPKEESRKFTNFQSPNIDPTEENDLDDSLSVKNGDSSNDFVTCNDINEDDFGDFGDFGSASGSTPPFVTGTQDSMSDATFEESSEHFPHFSEPGDDFGEFGDINAVSCQEETILTKSDLKQTSDNLSEECQLARKSSGTGTEPVAKLKNGQEGEIGHFDSVPNIQDDCNGFQDSDDFADFSSAGPSQVVDWNAFEDEQKDSCSWAAFGDQQATESHHRKEAWQSHRTDENIDTPGTPKTHSVPSATSKGAVASGHLQESATSVQTALLNRLERIFEACFPSILVPDAEEEVTSLKHLLETSTLPIKTREALPESGELLDVWTELQDIHDAHGLRYQWGGSHSNKKLLSSLGIDTRNILFTGNKKQPVIVPMYAAGLGMLEPTKEPLKPLSAAEKIASIGQTATMSPDMNTCTSDQFQESLPPVQFDWSSSGLTNPLDASGGSTLLNLDFFGPVDDSSSSSSTTIPGVDPELYELTTSKLEISTSSLKVTDAFARLMSTVEKTSTSTRKPKREEHLSEEAIKVIAGLPDLTFMHAKVLMFPATLTPSTSSQEKADG
binds	γ-synergin, endogenous in HEK293 cells (protein, UniProt Q9UMZ2 1-1314) MALRPGAGSGGGGAAGAGAGSAGGGGFMFPVAGGIRPPQAGLMPMQQQGFPMVSVMQPNMQGIMGMNYSSQMSQGPIAMQAGIPMGPMPAAGMPYLGQAPFLGMRPPGPQYTPDMQKQFAEEQQKRFEQQQKLLEEERKRRQFEEQKQKLRLLSSVKPKTGEKSRDDALEAIKGNLDGFSRDAKMHPTPASHPKKPGPSLEEKFLVSCDISTSGQEQIKLNTSEVGHKALGPGSSKKYPSLMASNGVAVDGCVSGTTTAEAENTSDQNLSIEESGVGVFPSQDPAQPRMPPWIYNESLVPDAYKKILETTMTPTGIDTAKLYPILMSSGLPRETLGQIWALANRTTPGKLTKEELYTVLAMIAVTQRGVPAMSPDALNQFPAAPIPTLSGFSMTLPTPVSQPTVIPSGPAGSMPLSLGQPVMGINLVGPVGGAAAQASSGFIPTYPANQVVKPEEDDFQDFQDASKSGSLDDSFSDFQELPASSKTSNSQHGNSAPSLLMPLPGTKALPSMDKYAVFKGIAADKSSENTVPPGDPGDKYSAFRELEQTAENKPLGESFAEFRSAGTDDGFTDFKTADSVSPLEPPTKDKTFPPSFPSGTIQQKQQTQVKNPLNLADLDMFSSVNCSSEKPLSFSAVFSTSKSVSTPQSTGSAATMTALAATKTSSLADDFGEFSLFGEYSGLAPVGEQDDFADFMAFSNSSISSEQKPDDKYDALKEEASPVPLTSNVGSTVKGGQNSTAASTKYDVFRQLSLEGSGLGVEDLKDNTPSGKSDDDFADFHSSKFSSINSDKSLGEKAVAFRHTKEDSASVKSLDLPSIGGSSVGKEDSEDALSVQFDMKLADVGGDLKHVMSDSSLDLPTVSGQHPPAADIEDLKYAAFGSYSSNFAVSTLTSYDWSDRDDATQGRKLSPFVLSAGSGSPSATSILQKKETSFGSSENITMTSLSKVTTFVSEDALPETTFPALASFKDTIPQTSEQKEYENRDYKDFTKQDLPTAERSQEATCPSPASSGASQETPNECSDDFGEFQSEKPKISKFDFLVATSQSKMKSSEEMIKSELATFDLSVQGSHKRSLSLGDKEISRSSPSPALEQPFRDRSNTLNEKPALPVIRDKYKDLTGEVEENERYAYEWQRCLGSALNVIKKANDTLNGISSSSVCTEVIQSAQGMEYLLGVVEVYRVTKRVELGIKATAVCSEKLQQLLKDIDKVWNNLIGFMSLATLTPDENSLDFSSCMLRPGIKNAQELACGVCLLNVDSRSRKEEKPAEEHPKKAFNSETDSFKLAYGGHQYHASCANFWINCVEPKPPGLVLPDLL
